From paper PMC3917433
These are yes or no findings as the source states them, for the method shown. In cells and extracts the contact can be indirect. Some binding calls cover weakened binding; strength is not graded here.

Protein sequences, listed by entry. Tags and fused reporters are not part of them.
UniProt P13202: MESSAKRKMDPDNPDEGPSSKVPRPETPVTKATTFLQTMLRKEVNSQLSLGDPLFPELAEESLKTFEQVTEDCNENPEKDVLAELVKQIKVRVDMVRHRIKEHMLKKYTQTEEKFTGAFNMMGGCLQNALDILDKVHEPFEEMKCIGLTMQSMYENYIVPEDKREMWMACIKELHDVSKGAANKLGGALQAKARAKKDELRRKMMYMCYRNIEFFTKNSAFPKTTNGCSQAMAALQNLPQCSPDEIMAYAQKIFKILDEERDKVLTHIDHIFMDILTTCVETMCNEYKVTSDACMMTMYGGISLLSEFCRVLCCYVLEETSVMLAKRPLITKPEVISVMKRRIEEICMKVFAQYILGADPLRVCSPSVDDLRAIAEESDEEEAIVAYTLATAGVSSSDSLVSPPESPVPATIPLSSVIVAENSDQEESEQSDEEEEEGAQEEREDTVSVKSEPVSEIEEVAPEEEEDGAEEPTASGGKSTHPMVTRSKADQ

B1: SC35 (protein, UniProt Q01130 1-221)
chain: MSYGRPPPDVEGMTSLKVDNLTYRTSPDTLRRVFEKYGRVGDVYIPRDRYTKESRGFAFVRFHDKRDAEDAMDAMDGAVLDGRELRVQMARYGRPPDSHHSRRGPPPRRYGGGGYGRRSRSPRRRRRSRSRSRSRSRSRSRSRYSRSKSRSRTRSRSRSTSKSRSARRSKSKSSSVSRSRSRSRSRSRSRSPPPVSKRESKSRSRSKSPPKSPEEEGAVSS
B2: TRIM33 (protein, UniProt Q9UPN9 1-1127)
chain: MAENKGGGEAESGGGGSGSAPVTAGAAGPAAQEAEPPLTAVLVEEEEEEGGRAGAEGGAAGPDDGGVAAASSGSAQAASSPAASVGTGVAGGAVSTPAPAPASAPAPGPSAGPPPGPPASLLDTCAVCQQSLQSRREAEPKLLPCLHSFCLRCLPEPERQLSVPIPGGSNGDIQQVGVIRCPVCRQECRQIDLVDNYFVKDTSEAPSSSDEKSEQVCTSCEDNASAVGFCVECGEWLCKTCIEAHQRVKFTKDHLIRKKEDVSESVGASGQRPVFCPVHKQEQLKLFCETCDRLTCRDCQLLEHKEHRYQFLEEAFQNQKGAIENLLAKLLEKKNYVHFAATQVQNRIKEVNETNKRVEQEIKVAIFTLINEINKKGKSLLQQLENVTKERQMKLLQQQNDITGLSRQVKHVMNFTNWAIASGSSTALLYSKRLITFQLRHILKARCDPVPAANGAIRFHCDPTFWAKNVVNLGNLVIESKPAPGYTPNVVVGQVPPGTNHISKTPGQINLAQLRLQHMQQQVYAQKHQQLQQMRMQQPPAPVPTTTTTTQQHPRQAAPQMLQQQPPRLISVQTMQRGNMNCGAFQAHQMRLAQNAARIPGIPRHSGPQYSMMQPHLQRQHSNPGHAGPFPVVSVHNTTINPTSPTTATMANANRGPTSPSVTAIELIPSVTNPENLPSLPDIPPIQLEDAGSSSLDNLLSRYISGSHLPPQPTSTMNPSPGPSALSPGSSGLSNSHTPVRPPSTSSTGSRGSCGSSGRTAEKTSLSFKSDQVKVKQEPGTEDEICSFSGGVKQEKTEDGRRSACMLSSPESSLTPPLSTNLHLESELDALASLENHVKIEPADMNESCKQSGLSSLVNGKSPIRSLMHRSARIGGDGNNKDDDPNEDWCAVCQNGGDLLCCEKCPKVFHLTCHVPTLLSFPSGDWICTFCRDIGKPEVEYDCDNLQHSKKGKTAQGLSPVDQRKCERLLLYLYCHELSIEFQEPVPASIPNYYKIIKKPMDLSTVKKKLQKKHSQHYQIPDDFVADVRLIFKNCERFNEMMKVVQVYADTQEINLKADSEVAQAGKAVALYFEDKLTEIYSDRTFAPLPEFEQEEDDGEVTEDSDEDFIQPRRKRLKSDERPVHIK
B3: HDAC10 (protein, UniProt Q969S8 1-669)
chain: MGTALVYHEDMTATRLLWDDPECEIERPERLTAALDRLRQRGLEQRCLRLSAREASEEELGLVHSPEYVSLVRETQVLGKEELQALSGQFDAIYFHPSTFHCARLAAGAGLQLVDAVLTGAVQNGLALVRPPGHHGQRAAANGFCVFNNVAIAAAHAKQKHGLHRILVVDWDVHHGQGIQYLFEDDPSVLYFSWHRYEHGRFWPFLRESDADAVGRGQGLGFTVNLPWNQVGMGNADYVAAFLHLLLPLAFEFDPELVLVSAGFDSAIGDPEGQMQATPECFAHLTQLLQVLAGGRVCAVLEGGYHLESLAESVCMTVQTLLGDPAPPLSGPMAPCQSALESIQSARAAQAPHWKSLQQQDVTAVPMSPSSHSPEGRPPPLLPGGPVCKAAASAPSSLLDQPCLCPAPSVRTAVALTTPDITLVLPPDVIQQEASALREETEAWARPHESLAREEALTALGKLLYLLDGMLDGQVNSGIAATPASAAAATLDVAVRRGLSHGAQRLLCVALGQLDRPPDLAHDGRSLWLNIRGKEAAALSMFHVSTPLPVMTGGFLSCILGLVLPLAYGFQPDLVLVALGPGHGLQGPHAALLAAMLRGLAGGRVLALLEENSTPQLAGILARVLNGEAPPSLGPSSVASPEDVQALMYLRGQLEPQWKMLQCHPHLVA

Each binder was assayed against Human cytomegalovirus immediate-early protein 1 (human cytomegalovirus (HCMV)) (UniProt P13202) (assay: co-IP).

**Q.** For B1, which binding is on record?
**A.** Its binding is “binds”.

**Q.** With B2 as the binder, how does the binding read?
**A.** Its binding is “binds”.

**Q.** With B3 as the binder, how does the binding read?
**A.** Its binding is “binds”.
